PubChem BioAssay AID1259254 – NCATS | 2017
The deposit covers about 59,000 reagents; shown is an unselected part. Over the whole deposit, about 1,550 (2.6%) got an active call. 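G2 share is only a proxy for re-replication; each gene was hit by three separate siRNAs, and active genes were retested.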 Raw values vary from plate to plate and are shown uncorrected. The numbers tell different reagents against one gene apart. Not given: the amount of reagent.

Assay: 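Genome-wide screen for genes that prevent DNA re-replication in cancer cells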 (primary screen)
System: human HCT116 colorectal cancer cells
Reagents: single siRNA against human genes
Time to read-out: 3 days
Read-out: 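Imaged Hoechst DNA stain sorts each cell into a cycle phase by DNA amount; per plate, G2 fraction set to 0% for non-targeting and 100% for GMNN siRNA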
Scale: G2 robust z-score and G2 cells, % of GMNN control: higher = more G2 cells, more excess DNA replication; raw share of cells in G2: higher = larger share of cells with G2 DNA content
Rule for the call: 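An siRNA counts as active if its G2 robust z-score lies at least 5 MADs above the screen median; here such calls match roughly 38% of GMNN control or more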

gene symbol	reagent no.	G2 robust z-score	G2 cells, % of GMNN control	raw share of cells in G2 (%)	Call
NTS	1	0.515	6.59	5.45	inactive
NTS	2	-0.555	-0.936	4.37	inactive
NTS	3	2.77	22.5	13.7	inactive
CARTPT	1	0.588	7.11	8.54	inactive
CARTPT	2	1.42	13	9.36	inactive
CARTPT	3	0.986	9.91	7.01	inactive
INTS6	1	0.972	9.8	10.6	inactive
INTS6	2	0.763	8.33	6.95	inactive
INTS6	3	1.74	15.2	8.97	inactive
CRYBB1	1	1.04	10.3	10.1	inactive
CRYBB1	2	2.18	18.3	10.8	inactive
CRYBB1	3	-0.387	0.247	3.62	inactive
DGKB	1	-0.123	2.1	6.3	inactive
DGKB	2	-0.647	-1.59	4.87	inactive
DGKB	3	0.209	4.44	5.59	inactive
FOXL2NB	1	-0.514	-0.649	3.57	inactive
FOXL2NB	2	0.0895	3.6	4.94	inactive
FOXL2NB	3	-0.291	0.917	5.17	inactive
DMC1	1	-1.09	-4.72	2.25	inactive
DMC1	2	6.58	49.3	20.6	active
DMC1	3	0.137	3.93	7.95	inactive
MKRN3	1	1.19	11.3	8.21	inactive
MKRN3	2	-0.587	-1.16	3.83	inactive
MKRN3	3	3.65	28.7	17.7	inactive
OR52N2	1	0.303	5.1	5.52	inactive
OR52N2	2	0.601	7.2	6.54	inactive
OR52N2	3	1	10	8.94	inactive
AKNAD1	1	-0.965	-3.82	2.19	inactive
AKNAD1	2	0.129	3.88	4.46	inactive
AKNAD1	3	1.63	14.4	7.8	inactive
RPAIN	1	3.3	26.2	12.8	inactive
RPAIN	2	1.48	13.4	7.42	inactive
RPAIN	3	-1.08	-4.62	1	inactive
PTER	1	-0.114	2.17	5.48	inactive
PTER	2	-0.672	-1.76	4.65	inactive
PTER	3	0.73	8.1	8.22	inactive
INTS13	1	0.00877	3.03	5.69	inactive
INTS13	2	1.16	11.1	8.74	inactive
INTS13	3	-0.955	-3.75	1.94	inactive
ALDH1A1	1	3.51	27.6	14.9	inactive
ALDH1A1	2	-0.158	1.85	4.68	inactive
ALDH1A1	3	1.37	12.6	9.01	inactive
VSIG4	1	0.043	3.27	6.27	inactive
VSIG4	2	0.889	9.22	7.94	inactive
VSIG4	3	3.13	25	12.5	inactive
ZNF888	1	-0.917	-3.49	2.58	inactive
ZNF888	2	0.0303	3.18	4.79	inactive
ZNF888	3	-0.0435	2.66	5.77	inactive
STK32A	1	-0.819	-2.79	4.72	inactive
STK32A	2	0.634	7.42	7.89	inactive
STK32A	3	-0.422	-0.000578	3.68	inactive
ANKRD28	1	3.52	27.7	15.8	inactive
ANKRD28	2	-0.796	-2.63	3.05	inactive
ANKRD28	3	-0.221	1.41	3.7	inactive
AMT	1	-0.293	0.906	5.03	inactive
AMT	2	1.46	13.2	9.78	inactive
AMT	3	0.0292	3.17	5.17	inactive
ING5	1	0.374	5.6	4.77	inactive
ING5	2	-0.326	0.675	6.21	inactive
ING5	3	-0.503	-0.569	3.45	inactive
GPATCH11P1	1	3.73	29.2	14	inactive
GPATCH11P1	2	1.45	13.2	9.02	inactive
GPATCH11P1	3	0.462	6.22	6.69	inactive
NCKAP5L	1	-0.697	-1.94	2.93	inactive
NCKAP5L	2	1.59	14.1	8.52	inactive
NCKAP5L	3	0.515	6.59	5.27	inactive
CCDC77	1	-0.431	-0.0673	4.09	inactive
CCDC77	2	-0.989	-3.99	2.27	inactive
CCDC77	3	-0.395	0.191	2.46	inactive
KRT4	1	4.76	36.5	18.3	inactive
KRT4	2	-0.228	1.37	6.2	inactive
KRT4	3	0.929	9.51	7.69	inactive
CROCC	1	0.31	5.15	7.66	inactive
CROCC	2	-1.16	-5.2	1.77	inactive
CROCC	3	0.456	6.17	5.65	inactive
FAM151B	1	-0.756	-2.35	2.76	inactive
FAM151B	2	0.354	5.46	4.79	inactive
FAM151B	3	0.0433	3.27	3.8	inactive
GPR180	1	0.0276	3.16	4.74	inactive
GPR180	2	-0.159	1.85	3.58	inactive
GPR180	3	0.735	8.14	5.34	inactive
TMPRSS11D	1	0.207	4.43	7.1	inactive
TMPRSS11D	2	1.8	15.7	10.5	inactive
TMPRSS11D	3	-0.0536	2.59	4.88	inactive
DSG1	1	3.32	26.3	14.6	inactive
DSG1	2	-0.519	-0.687	3.86	inactive
DSG1	3	-0.264	1.11	5.36	inactive
